Substitutions are numbered along the chain they refer to. These are yes or no findings as the source states them, for the method shown. In cells and extracts the contact can be indirect. Binding calls can cover weak binding; strength is not graded here. For part of these data: Where a sequence is shown, tags or fusion partners need not be part of it.
Key:
Test in all cases: co-IP
MYC-PER2^K736R (human) = target: T1, MYC-PER2^K736R (human) (UniProt O15055)
T1 sequence: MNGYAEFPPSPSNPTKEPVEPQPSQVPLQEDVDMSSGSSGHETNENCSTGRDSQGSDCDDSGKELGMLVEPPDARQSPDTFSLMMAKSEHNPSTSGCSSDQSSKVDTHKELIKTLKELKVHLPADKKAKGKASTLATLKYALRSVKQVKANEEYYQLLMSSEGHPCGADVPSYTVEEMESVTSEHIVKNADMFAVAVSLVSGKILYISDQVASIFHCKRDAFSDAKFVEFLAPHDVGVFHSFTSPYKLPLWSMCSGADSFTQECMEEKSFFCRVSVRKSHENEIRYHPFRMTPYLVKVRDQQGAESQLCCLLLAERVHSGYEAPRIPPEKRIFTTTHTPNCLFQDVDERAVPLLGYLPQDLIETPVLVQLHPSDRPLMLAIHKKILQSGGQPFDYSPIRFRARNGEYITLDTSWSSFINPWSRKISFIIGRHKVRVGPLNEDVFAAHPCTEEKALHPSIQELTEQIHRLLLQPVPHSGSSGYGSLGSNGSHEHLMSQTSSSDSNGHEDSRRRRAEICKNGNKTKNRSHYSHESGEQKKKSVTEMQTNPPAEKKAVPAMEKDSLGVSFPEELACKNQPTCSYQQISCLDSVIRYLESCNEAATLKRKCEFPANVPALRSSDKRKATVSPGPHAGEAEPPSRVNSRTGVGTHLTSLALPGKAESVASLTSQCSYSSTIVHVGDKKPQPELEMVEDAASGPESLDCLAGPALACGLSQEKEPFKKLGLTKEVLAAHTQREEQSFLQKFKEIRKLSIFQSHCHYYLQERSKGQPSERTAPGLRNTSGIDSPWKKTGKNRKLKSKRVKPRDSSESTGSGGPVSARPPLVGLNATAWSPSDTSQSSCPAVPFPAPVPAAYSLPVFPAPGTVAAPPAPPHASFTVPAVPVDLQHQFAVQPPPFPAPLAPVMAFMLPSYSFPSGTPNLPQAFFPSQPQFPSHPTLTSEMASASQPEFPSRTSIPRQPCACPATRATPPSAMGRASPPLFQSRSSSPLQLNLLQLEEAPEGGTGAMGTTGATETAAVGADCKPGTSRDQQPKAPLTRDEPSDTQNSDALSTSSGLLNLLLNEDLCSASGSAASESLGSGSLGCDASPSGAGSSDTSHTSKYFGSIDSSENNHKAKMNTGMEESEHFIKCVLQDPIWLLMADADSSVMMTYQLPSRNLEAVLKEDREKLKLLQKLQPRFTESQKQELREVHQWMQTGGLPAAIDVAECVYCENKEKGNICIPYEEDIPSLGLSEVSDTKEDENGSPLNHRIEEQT

MYC-PER2^WT (human) = target: T2, MYC-PER2^WT (human) (UniProt O15055)
T2 sequence: T1 sequence with R736K

[1] = target: T3, Period2 (PER2), endogenous (human (endogenous in U2OS)) (UniProt O15055)
T3 sequence: T1 sequence with R736K

Measured: binding

β-TrCP, endogenous (human (endogenous in U2OS and HEK-293T))
binds: all assays above
